Measured values as given in patent publication US20060223837A1 (priority 2005, published 2006).
Values joined by “and” are separate entries in the source; they are usually repeats but may differ in a detail not shown here. Identical values can stand only once. The name of at least one read-out is uncertain.

Protein sequences, listed by entry. Tags and fused reporters are not part of them.
UniProt Q8NER1, whole entry: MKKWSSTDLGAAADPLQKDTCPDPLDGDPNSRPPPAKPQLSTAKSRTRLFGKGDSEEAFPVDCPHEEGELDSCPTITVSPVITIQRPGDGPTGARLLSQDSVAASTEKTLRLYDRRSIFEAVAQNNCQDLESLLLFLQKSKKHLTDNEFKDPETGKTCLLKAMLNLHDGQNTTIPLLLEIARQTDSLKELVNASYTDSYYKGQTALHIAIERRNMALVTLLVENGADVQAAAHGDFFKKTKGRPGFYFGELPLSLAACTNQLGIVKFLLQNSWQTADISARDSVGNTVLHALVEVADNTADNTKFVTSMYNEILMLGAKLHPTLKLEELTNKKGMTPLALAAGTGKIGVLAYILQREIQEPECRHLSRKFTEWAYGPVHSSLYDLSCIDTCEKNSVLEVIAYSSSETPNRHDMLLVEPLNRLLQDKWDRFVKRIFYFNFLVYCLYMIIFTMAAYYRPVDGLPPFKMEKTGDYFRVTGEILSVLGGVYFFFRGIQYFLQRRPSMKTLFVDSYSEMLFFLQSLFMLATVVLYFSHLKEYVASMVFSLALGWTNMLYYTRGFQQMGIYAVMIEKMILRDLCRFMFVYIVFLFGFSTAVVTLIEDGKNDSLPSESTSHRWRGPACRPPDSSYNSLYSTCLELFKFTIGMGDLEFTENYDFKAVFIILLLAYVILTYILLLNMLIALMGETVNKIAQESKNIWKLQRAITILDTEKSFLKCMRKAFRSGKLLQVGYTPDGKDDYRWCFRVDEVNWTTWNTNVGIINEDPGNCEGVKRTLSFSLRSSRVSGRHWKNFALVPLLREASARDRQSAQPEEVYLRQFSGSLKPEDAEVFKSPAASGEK

Target: T1, human VR1 (Homo sapiens, UniProt Q8NER1)
T1 construct: expressed in transfected cells; host or cells: HEK293
Assay: Human VR1 functional assay (FLIPR intracellular Ca2+)
Type: cell-based
Settings: inhibition of capsaicin response
Method: The functional activity of the test compounds was determined by measuring changes in intracellular calcium concentration using a Ca^2+-sensitive fluorescent dye and FLIPR™ technology. Increases in Ca^2+ concentration were readily detected upon challenge with capsaicin. HEK293 Cells expressing human VR1 were grown on poly-D-lysine coated 384 well black-walled plates (BD 354663) and 1 day later loaded with Calcium 3 Dye for 35 min at 37 C, 5% CO2 and then for 25 min at room temperature, and subsequently tested for agonist-induced increases in intracellular Ca^2+ levels using FLIPR™ technology. Cells were challenged with test compounds (at varying concentrations, which are indicated in parentheses in the heading of the table below) and intracellular Ca^2+ was measured for 5 min prior to the addition of capsaicin to all wells to achieve a final concentration of eliciting an approximate 80% maximal response ([…]). EC50 or IC50 values were determined from dose-response studies. Curves were generated using the average of quadruplicate wells for each data point.

Row | SMILES | h % I (10 μM)
1 | CC(C)(C)c1ccc(CCC(=O)Nc2ccc(-c3cccc([N+](=O)[O-])c3)cc2)cc1 [Cpd 11] | 20%
2 | CC(C)(C)c1ccc(CCC(=O)Nc2ccc(-c3cccc(C(N)=O)c3)cc2)cc1 [Cpd 31, 4′-[3-(4-tert-butyl-phenyl)-propionylamino]-biphenyl-3-carboxylic acid amide] | 47%
3 | CC(C)(C)c1ccc(/C=C/C(=O)Nc2cccc(-c3cccc(C(N)=O)c3)c2)cc1 [Cpd 33] | 27% and 54%
